Out of some 340,000 compounds screened, about 170 (0.05%) were called active. Inconclusive means that the source gave no clear call. Such entries were picked first, then a sample of the others. Calls come from the whole dose curve; as a rule, active = well fitted inhibition curve with a large enough effect in the signal ratio, with a control signal flat (not every such curve was filed as active); inconclusive = small, poorly fitted or top-dose-only effect, or effect the other way, or a change in a side signal; inactive = flat fitted curve, though single readings scatter; the % refers to the signal ratio. A potency beside an inconclusive call is a rough fit, not a confirmed value.
assay: qHTS Assay to Find Inhibitors of Chronic Active B-Cell Receptor Signaling; conditions: ABC-DLBCL IkBa-CBG/CBR reporter, luminescence ratio (green luciferase fused to IkBa over red control in TMD8 lymphoma cells), 4 h; activity change, negative = inhibition: at 46.1 µM (top of the series) unless noted;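 for activity change, negative = inhibition: plate controls were basal doxycycline-induced cells for no effect and cells given 10 µM MG132 for full effect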
Outline: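 Doxycycline induced both beetle luciferases in TMD8 lymphoma cells; IKK-driven degradation limits the IkappaBalpha-fused green signal, while red luminescence normalises for cell number and nonspecific effects. Compounds tested up to 46 uM, 4 hrs.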
Potency is the fitted concentration of half-maximal effect.

Row | SMILES | activity change, negative = inhibition | Potency
1 | CC(C)CNC(=O)c1c(F)c(F)c(F)c(F)c1F | inconclusive: -24.3% | 
2 | CCOc1ccccc1C(=O)OCC(=O)Nc1ncc(C(F)(F)F)cc1Cl | inconclusive: -3.19% | 
3 | CCN1CC(CNC(=O)c2ccc3nc(Cc4cccc(Cl)c4)oc3c2)CC1=O (stereo not given) | inconclusive: -1.63% | 
4 | COc1cc2cnc(-c3cccnc3)cc2cc1OC | inconclusive: -6.43% | 
5 | Cc1ccc(-c2ccc(=O)n(CC(=O)NC(C)c3ccccc3)n2)cc1 (stereo not given) | inactive | 
6 | CCOC(=O)c1c(C)[nH]c(C)c1C(=O)COC(=O)c1cccc(S(=O)(=O)NC)c1 | inconclusive: -1.36% | 
7 | O=c1oc2c3c4c(cc2c2c1CCC2)OCCN4CCC3 | inconclusive: -2.34% | 
8 | CC(C)Nc1nc(NC(C)C)nc(SCCOC(=O)Nc2ccc(Cl)cc2Cl)n1 | inconclusive: 0.228% | 
9 | COc1ccccc1NC(=O)CN(c1ccccc1F)S(C)(=O)=O | inconclusive: 4.54% | 
10 | Cc1nc(C)c(CCNC(=O)c2ccc(C(F)(F)F)cc2)s1 | inconclusive: -2.75% | 
11 | CCOC(=S)SCc1cn2cccc(C)c2n1 | inactive | 
12 | CCN(CC)S(=O)(=O)c1ccc(N2CCOCC2)c(NS(=O)(=O)c2ccc(C)c(C)c2)c1 | inconclusive: 4.74% | 
13 | COc1cccc(NC(=O)[C@H](NC(=O)[C@@H]2Cc3ccccc3CN2)c2ccccc2)c1 | inconclusive: -20.1% | 
14 | COC(=O)c1ccccc1NC(=O)Oc1ccc(F)cc1 | inactive | 
15 | O=C1/C(=C/c2cccs2)Cc2ccccc21 | inactive | 
16 | COc1ccc(S(=O)(=O)N(C)C(C)CCc2ccco2)cc1 (stereo not given) | inconclusive: -4.1% | 
17 | Oc1c(C(Nc2cccc(C(F)(F)F)c2)c2cccnc2)ccc2cccnc12 (stereo not given) |  | inconclusive: 29.1 µM [falling, single point]
18 | COc1cccc(N2CCN(CC(=O)C34CC5CC(CC(C5)C3)C4)CC2)c1 | inconclusive: 0.721% | 
19 | CCC1CN(C(=O)NCc2cccc(OC)c2)c2ccccc2O1 (stereo not given) | inactive | 
20 | COc1ccc(NC(=O)N2CCC(CO)(CC3CCCCO3)CC2)c(OC)c1 (stereo not given) | inactive | 
21 | O=C(COc1ccccc1F)NCc1ccc(-n2cccc2)cc1 | inactive | 
22 | COC(=O)C(=O)C/C(=N/Nc1ncnc2ccccc12)c1ccc(Cl)cc1 | inactive | 

Row | SMILES | activity change, negative = inhibition | Potency
23 | COc1ccc(-c2[nH]c(-c3ccccc3)nc2SCC(=O)NC2CCCC2)cc1 | inconclusive: -11.5% | 
24 | Fc1ccc(Cn2nnc(-c3ccc(Cl)cc3)n2)cc1 | inconclusive: 12.3% | 
25 | O=C(NNC(=S)NC(=O)c1ccccc1)c1cccnc1 |  | inconclusive: 25.1 µM [falling, partial curve]
26 | Cc1ccc(C(=O)COc2nc(C)cc(C)c2C#N)cc1 | inconclusive: 6.6% | 
27 | Fc1ccc(CNC(=S)Nc2ccc(Cl)cc2Cl)cc1 | inactive | 
28 | CCN(CC)S(=O)(=O)c1ccc(C(=O)Nc2nnc(CSC)o2)cc1 | inconclusive: 21.9% | 
29 | COc1ccc(CCNc2nc(SCc3ccccc3Cl)nc3ccccc23)cc1OC |  | inconclusive: 35.5 µM [falling, single point]
30 | O=C(NCCCN1CCOCC1)c1ccc(-n2nc(C(F)(F)F)cc2-c2cccs2)cc1 |  | inconclusive: 23.1 µM [rising, single point]
31 | COC(=O)C1=C(C)NC(C)=C(C(=O)OC)C1c1ccc(-c2cccc(Cl)c2Cl)o1 |  | inconclusive: 18.4 µM [falling, single point]
32 | COc1cc(/C=C/C(=O)OCC(=O)NCc2ccco2)ccc1O |  | inconclusive: 32.6 µM [falling, single point]
33 | O=C(CN1C(=O)C2C3C=CC(C3)C2C1=O)Nc1nc2ccccc2[nH]1 (stereo not given) |  | inconclusive: 2.06 µM [rising, full curve, poor fit]
34 | CCOC(=O)c1c(S(=O)(=O)N2CCC(C(=O)Nc3cccc(C#N)c3)CC2)c(C)n(C)c1C | inactive | 
35 | CCN(CC)S(=O)(=O)c1ccc(C(=O)NC2CC(=O)N(c3ccc4c(c3)OCCO4)C2)cc1 (stereo not given) | inactive | 
36 | CC(=O)Nc1cccc(NC(=O)CSc2ncc(-c3ccccc3)[nH]2)c1 | inconclusive: 2.51% | 
37 | O=C(Nc1cccc(-c2ccccc2)c1)N1CCN(C(=O)Nc2cccc(-c3ccccc3)c2)CC1 | inactive | 
38 | CCOc1ccc(C(=O)Nc2c(C(N)=O)oc3ccccc23)cc1 | inconclusive: -4.07% | 
39 | Cc1c(C(=O)OCC(=O)N2C(C)CCCC2C)oc2ccccc12 (stereo not given) | inactive | 
40 | COC(=O)c1cccnc1-n1c(=O)c2cccnc2n(Cc2ccc(Cl)cc2)c1=O |  | inconclusive: 29.1 µM [falling, single point]
41 | CCN(CC(=O)Nc1c(F)cccc1F)C(=O)c1cc2ccccc2oc1=O | inconclusive: 16.6% | 
42 | Cc1cc2c(cc1C)CSC(c1c(O)ccc3ccccc13)SC2 | inconclusive: 23.8% | 
43 | CCCn1c(=O)c2[nH]cnc2n(-c2ccccc2C)c1=O | inconclusive: -3.24% | 
44 | CCCCc1nccn1CCn1ccnc1CCCC | inconclusive: 6.07% | 

Full records, quoted from the list.
`COc1cccc(N2CCN(CC(=O)C34CC5CC(CC(C5)C3)C4)CC2)c1` is listed as activity change, negative = inhibition: inconclusive: 0.721%
`COC(=O)c1cccnc1-n1c(=O)c2cccnc2n(Cc2ccc(Cl)cc2)c1=O` is listed as Potency: inconclusive: 29.1 µM [falling, single point]

Next structures.

Row | SMILES | activity change, negative = inhibition | Potency
45 | CCN(CC)c1nc2ccccc2nc1C(C#N)C(=O)NCCCOC (stereo not given) | inconclusive: 8.83% | 
46 | Nn1c(SCc2ccccc2)nc2c(cnn2-c2ccccc2)c1=O | inconclusive: -0.807% | 
47 | COc1cc(C(=O)Sc2ccc(C)cc2)cc(OC)c1OC |  | inconclusive: 35.5 µM [falling, single point]
48 | Cc1noc(C)c1COC(=O)c1csc2c1CCC(C)C2 (stereo not given) |  | inconclusive: 23.1 µM [falling, single point]
49 | Cc1ccc(S(=O)(=O)N2CCN(Cc3cc(=O)n4ccccc4n3)CC2)cc1C | inconclusive: 10.8% | 
50 | COc1cc(/C=C2/CCCC(C(=O)C(F)(F)F)=C2O)ccc1O | inactive | 
51 | COc1ccc(-c2noc(CCCCC(=O)N3CCN(c4cc(C)ccc4C)CC3)n2)cc1 |  | inconclusive: 23.1 µM [falling, partial curve]
52 | O=C(Nc1ccc(S(=O)(=O)N2CCCC2)cc1)C1CCCCC1 | inconclusive: -2.54% | 
53 | COc1ccc([C@H]2CC(=O)C=C(c3cc(OC)ccc3OC)C2)cc1 | inactive | 
54 | CC1CC(C)CN(c2nc3c(c(=O)n(C)c(=O)n3C)n2C)C1 (stereo not given) |  | inconclusive: 2.06 µM [rising, full curve, poor fit]
55 | CCOC(=O)C1=C(O)C(=O)N(c2ccc(S(N)(=O)=O)cc2)C1c1ccc([N+](=O)[O-])cc1 (stereo not given) | inconclusive: 1.67% | 
56 | COc1ccc(OC)c(/C=N/n2c(-c3n[nH]c4c3CCC4)n[nH]c2=S)c1 | inconclusive: 28.9% | 
57 | O=c1c2ccccc2nc(COc2ccccc2)n1/N=C/c1c[nH]c2ccccc12 |  | inconclusive: 7.31 µM [falling, partial curve, poor fit]
58 | CCC(C(=O)OCC(=O)Nc1ccc(C)c(S(=O)(=O)N2CCOCC2)c1)c1ccccc1 (stereo not given) | inconclusive: 11.2% | 
59 | Cc1ccc(NC(=O)COC(=O)c2cccc3c2C(=O)c2ccccc2C3=O)c(C)c1 | inconclusive: -4.29% | 
60 | CN(CC(=O)Nc1ccc2c(c1)OCCO2)Cc1nc2ccccc2c(=O)[nH]1 | inconclusive: -4.56% | 
61 | Cc1ccc(CSc2nnc(SCC(=O)N/N=C/c3ccccc3OCC(=O)O)s2)cc1 | inconclusive: -16.3% | 
62 | O=C(NCc1ccc(Cl)cc1)C1=Cc2cc(Cl)ccc2OC1 | inactive | 
63 | CCOC(=O)C1CCCCN1S(=O)(=O)c1ccc2c(c1)CC(C)N2C(=O)C1CCC1 (stereo not given) | inconclusive: 17.6% | 
64 | Cc1cccc(Cc2c(C)nc3c(C(=O)NCc4ccco4)cnn3c2C)c1 | inconclusive: -0.255% | 
65 | CN1CCN(CCC(=O)Nc2ccc(OCc3ccccc3)cc2)CC1 | inactive | 
66 | Cc1ccc(NC(C)c2cc(Cl)ccc2O)cc1 (stereo not given) | inactive | 

Row | SMILES | activity change, negative = inhibition | Potency
67 | O=C1c2ccccc2C(=O)C12OC2c1cccc2ccccc12 (stereo not given) | inconclusive: 3.65% | 
68 | CCOC(=O)c1cc2cc3ccccc3cc2[nH]1 |  | inconclusive: 16.4 µM [falling, single point]
69 | COC(=O)c1ccc(COc2ccccc2/C=N/Nc2cccc(C(=O)O)c2)cc1 |  | inconclusive: 15.8 µM [falling, single point]
70 | O=C(COC(=O)c1ccc(S(=O)(=O)NCc2ccco2)cc1)Nc1ccccc1 | inactive | 
71 | CSc1nc(N)nc(C(C)C)n1 | inconclusive: 5.18% | 
72 | O=[N+]([O-])c1ccc(Nc2nc(NCCO)nc(N3CCCC3)n2)cc1 | inconclusive: 16.5% | 
73 | N#C/C(=C\c1ccc(O)c(O)c1)C(=O)Nc1ccccc1 |  | inconclusive: 18.4 µM [falling, single point]
74 | Cc1ccccc1NC(=O)COc1nsnc1N1CCOCC1 |  | inconclusive: 10 µM [falling, partial curve, poor fit]
75 | Brc1ccc(C2=Nc3cccc4cccc(c34)N2)o1 | inactive | 
76 | Cc1ccc(C)c(CSc2nnc(-c3cccnc3)o2)c1 | inconclusive: -184% | 
77 | CCn1ncc(C2=NOC(C(=O)Nc3cccc(C(C)=O)c3)C2)c1C (stereo not given) | inactive | 
78 | Cc1ccc(Cn2c(=O)oc3ccccc32)cc1 | inactive | 
79 | C/C(=N\NC(=S)NC(C)C)c1ccc(C(C)(C)C)cc1 | inactive | 
80 | O=C(Cc1c[nH]c2ccccc12)N1CCc2ccccc21 | inconclusive: 2.68% | 
81 | COc1ccc(C(=O)Nc2ccc(S(=O)(=O)N3CCCC3)cc2)cc1 | inactive | 
82 | Brc1ccccc1OCCCCCN1CCOCC1 | inconclusive: 6.67% | 
83 | Cc1ccc(C)c(NC(=O)CSc2nnc(-c3ccncc3)o2)c1 | inconclusive: -21% | 
84 | O=C(O)c1cc([N+](=O)[O-])ccc1N1CCC(Cc2ccccc2)CC1 | inactive | 
85 | COc1ccc(CCNc2nnc(Sc3nnnn3-c3ccccc3)s2)cc1OC |  | inconclusive: 18.4 µM [cytotoxic, partial curve]

— PubChem BioAssay AID493014 (National Center for Advancing Translational Sciences (NCATS), 2011)
